Measurements taken from the supplement of paper PMC10689618.
Where a name gives a salt, the structure may show the parent alone. The list shows a part of the results. Many values rest on one well or one pass, so single values are uncertain.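 Labelled rat cortical synaptosomes were engulfed by primary human fetal astrocytes. Engulfment equaled a red/green ratio, corrected for calcein live-cell signal and normalized to the plate median. Compounds were toxic when calcein dropped over 30%, and reduced phagocytosis when below 70% of the median above 5 µM.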

What was measured:
Human fetal astrocytes [1] = test: loss of total cells relative to no-compound high-control median (toxicity); higher = more toxic (fewer cells); details: 24 h
Human fetal astrocytes [2] = test: synaptosome phagocytosis (pHrodo/calcein intensity ratio) relative to plate median of data wells; higher = more phagocytosis; details: 24 h

Row | SMILES | loss of total cells (Human fetal astrocytes [1]; 1.39 µM) [%] | loss of total cells (Human fetal astrocytes [1]; 2.78 µM) [%] | loss of total cells (Human fetal astrocytes [1]; 5.56 µM) [%] | loss of total cells (Human fetal astrocytes [1]; 11.11 µM) [%] | loss of total cells (Human fetal astrocytes [1]; 22.22 µM) [%] | synaptosome phagocytosis (Human fetal astrocytes [2]; 1.39 µM) [%] | synaptosome phagocytosis (Human fetal astrocytes [2]; 2.78 µM) [%] | synaptosome phagocytosis (Human fetal astrocytes [2]; 5.56 µM) [%] | synaptosome phagocytosis (Human fetal astrocytes [2]; 11.11 µM) [%] | synaptosome phagocytosis (Human fetal astrocytes [2]; 22.22 µM) [%]
1 | CC1=C(/C=C/C(C)=C/C=C/C(C)=C/C(=O)Nc2ccc(O)cc2)C(C)(C)CCC1 [Retinoic acid p-hydroxyanilide] | -9.6 | -5.1 | -2.5 | 1.3 | 0.8 | 117 | 104 | 114 | 96.8 | 104
2 | NC(N)=NC(N)=Nc1cccc(Cl)c1 [1-(m-Chlorophenyl)-biguanide hydrochloride] | 11.3 | -12.8 | 12.3 | 1.3 | -12.8 | 98.3 | 94.7 | 99.9 | 108 | 89.1
3 | CC1CNCCN1S(=O)(=O)c1cccc2cnccc12 (stereo not given) | 4.3 | -6.8 | 4.2 | 30.5 | 6.5 | 116 | 102 | 112 | 132 | 95
4 | O=C(OCCN1CCOCC1)C1(c2ccccc2)CCCCC1 | -12.8 | -10.4 | 10.8 | 19 | 12.1 | 103 | 118 | 92 | 126 | 80.2
5 | N=C(N)N/N=C/c1c(Cl)cccc1Cl [Guanabenz acetate] | -11.3 | -1.7 | 11.5 | 4.9 | -1.6 | 108 | 104 | 117 | 132 | 93.1
6 | C[N+](C)(C)CCC(=O)c1cccc2ccccc12 [2-(alpha-Naphthoyl)ethyltrimethylammonium iodide] | -6.2 | -7.7 | 3.3 | 22.9 | 62.6 | 121 | 107 | 64.5 | 73.2 | 34.3
7 | C=CCN1CCc2c(cc(O)c(O)c2Br)[C@@H](c2ccccc2)C1 [R(+)-6-Bromo-APB hydrobromide] | -17.6 | -17.7 | -13.4 | -23.8 | 3.4 | 82.4 | 88.7 | 107 | 92.3 | 80.8
8 | N#Cc1c(-c2ccccc2)no[n+]1[O-] [4-Phenyl-3-furoxancarbonitrile] | -5.2 | 2.3 | -8.9 | 20 | 27.1 | 126 | 99.9 | 131 | 98.1 | 109
9 | CCCCS(=N)(=O)CCC(N)C(=O)O [L-Buthionine-sulfoximine] | 5.1 | -0.9 | -1.4 | -2.2 | -10.9 | 132 | 136 | 116 | 138 | 121
10 | C[C@H]1C[C@H]2[C@@H]3CCC4=CC(=O)C=C[C@]4(C)[C@@]3(Cl)[C@@H](O)C[C@]2(C)[C@@]1(O)C(=O)CO [Beclomethasone] | -14.3 | -12.9 | -5.1 | -4 | 10.2 | 103 | 76.3 | 76.2 | 113 | 77.8
11 | COc1cc(OC)c(C=C2C(=O)Nc3ccccc32)c(OC)c1 | 2.8 | -17.1 | 6.7 | -0.4 | -16.5 | 94.6 | 102 | 122 | 95.2 | 105
12 | O=C(Cc1ccc(Cl)c(Cl)c1)OCCN1CCCC1 [AC 915 oxalate] | -8.1 | -7.5 | -17.1 | -19.3 | -4.1 | 115 | 109 | 113 | 90.2 | 111
13 | CC1=C(C)C(=O)C(CCCCC#CCCCC#CCO)=C(C)C1=O | -15.4 | -21.1 | -16.1 | -24.7 | 13.9 | 88.6 | 105 | 96 | 86 | 70.1
14 | CC(C)NC[C@H](O)COc1ccc(CC(N)=O)cc1 [S(-)-Atenolol] | -7.7 | -6.6 | -22.6 | -7.6 | 4.9 | 101 | 115 | 88 | 104 | 71.1
15 | CNC1(C)C2CCC(C2)C1(C)C (stereo not given) [Mecamylamine hydrochloride] | -15.6 | -15.8 | 16.4 | -1 | -14 | 112 | 114 | 87.2 | 118 | 104
16 | C[C@]12C[C@H](O)[C@H]3[C@@H](CCC4=CC(=O)CC[C@@]43C)[C@@H]1CC[C@@H]2C(=O)CO [Corticosterone] | -22 | -22 | -25.3 | 1.3 | 5.6 | 63.9 | 84.5 | 80.6 | 87.7 | 72
17 | N[C@@H](CS(=O)O)C(=O)O [L-Cysteinesulfinic Acid] | -18 | -16.2 | -8.8 | -30 | -12.4 | 126 | 91.1 | 112 | 110 | 90.7
18 | CN1[C@@H]2CC[C@H]1CC(OC(=O)c1c[nH]c3ccccc13)C2 (stereo not given in full) [3-Tropanyl-indole-3-carboxylate hydrochloride] | -15.8 | -15.3 | -7.3 | -18 | -10.7 | 115 | 99.1 | 120 | 114 | 121
19 | CC[N+](C)(C)Cc1ccccc1Br [Bretylium tosylate] | -4 | -11.4 | -0.5 | -19.3 | 4.1 | 133 | 106 | 104 | 95.2 | 87.1
20 | COC(=O)[C@H](NC(=O)c1cc(-c2ccccc2)nc2ccccc12)c1ccccc1 | -7.9 | -19.7 | -12.3 | -24.7 | 7.2 | 90.3 | 83.8 | 89.2 | 113 | 104
21 | C[N+]1(CCCCC[N+]2(C)CCCC2)CCCC1 [Pentolinium di[L(+)-tartrate]] | -22.3 | -19.5 | -2.3 | -6.7 | -4.7 | 88.4 | 84.2 | 93.8 | 104 | 109

Row | SMILES | loss of total cells (Human fetal astrocytes [1]; 1.39 µM) [%] | loss of total cells (Human fetal astrocytes [1]; 2.78 µM) [%] | loss of total cells (Human fetal astrocytes [1]; 5.56 µM) [%] | loss of total cells (Human fetal astrocytes [1]; 11.11 µM) [%] | loss of total cells (Human fetal astrocytes [1]; 22.22 µM) [%] | synaptosome phagocytosis (Human fetal astrocytes [2]; 1.39 µM) [%] | synaptosome phagocytosis (Human fetal astrocytes [2]; 2.78 µM) [%] | synaptosome phagocytosis (Human fetal astrocytes [2]; 5.56 µM) [%] | synaptosome phagocytosis (Human fetal astrocytes [2]; 11.11 µM) [%] | synaptosome phagocytosis (Human fetal astrocytes [2]; 22.22 µM) [%]
22 | O=C(Nc1cc(C(=O)Nc2ccc(S(=O)(=O)O)cc2S(=O)(=O)O)cc(C(=O)Nc2ccc(S(=O)(=O)O)cc2S(=O)(=O)O)c1)Nc1cc(C(=O)Nc2ccc(S(=O)(=O)O)cc2S(=O)(=O)O)cc(C(=O)Nc2ccc(S(=O)(=O)O)cc2S(=O)(=O)O)c1 [NF449 octasodium salt] | -9 | 13.1 | 21.1 | 17.1 | 26.2 | 174 | 186 | 232 | 274 | 320
23 | N=C(N)NCCC[C@H](N)C(=O)O [L-Arginine] | -15.4 | -10.2 | -3.2 | -7.6 | 2.6 | 89.3 | 66.2 | 124 | 123 | 119
24 | CN1CCN(CCCN2c3ccccc3Sc3ccc(Cl)cc32)CC1 [Prochlorperazine dimaleate] | -7.8 | -6.9 | -7.3 | 0.4 | 29.6 | 99.6 | 104 | 76.8 | 60 | 31.9
25 | NC(=O)c1cc[n+](CC2=C(C(=O)O)N3C(=O)[C@@H](NC(=O)C(c4ccccc4)S(=O)(=O)[O-])[C@H]3SC2)cc1 (stereo not given in full) [Cefsulodin sodium salt hydrate] | -19.4 | -15.6 | -0.5 | -11.2 | 16.2 | 109 | 108 | 118 | 84.8 | 93.6
26 | O=S(=O)(O)C1CCNCC1 [Piperidine-4-sulphonic acid] | -17.7 | -15.3 | -18.5 | -15.7 | -0.8 | 106 | 97.3 | 109 | 113 | 91.6
27 | C=C(C)[C@@H]1CC=C(C(=O)O)CC1 [(-)-Perillic acid] | -17.7 | -33.8 | -15.2 | 10.3 | -28 | 118 | 106 | 130 | 112 | 107
28 | CCCn1cnc2c1c(=O)n(CCCCC(C)=O)c(=O)n2C [Propentofylline] | -7.1 | -34.4 | -7.3 | -8.8 | -21.4 | 101 | 111 | 125 | 116 | 109
29 | Cc1cc(NC(=O)Nc2ccc3c(ccn3C)c2)sn1 | -19.4 | -10.8 | -7.8 | 11.2 | 9.4 | 132 | 104 | 96.1 | 104 | 123
30 | Cc1ccc(O)c(N=Nc2ccccc2)n1 | -7.1 | -17.1 | -6.2 | -7.3 | -28.8 | 123 | 101 | 103 | 79.1 | 106
31 | CCOC(=O)[C@]12CC1/C(=N\O)c1ccccc1O2 (stereo not given in full) | -19.8 | -12 | -1.4 | -13.9 | 7.9 | 102 | 84 | 97.1 | 94.4 | 79.2
32 | CC(C(=O)O)c1ccc(CC2CCCC2=O)cc1 (stereo not given) [loxoprofen] | -17.5 | -6.8 | 11.7 | 27.6 | 32.7 | 86.6 | 91.9 | 110 | 116 | 111
33 | NC1(C(=O)O)CCCCC1 [1-Amino-1-cyclohexanecarboxylic acid hydrochloride] | -19.8 | -3.3 | -23.5 | -23.8 | 2.6 | 78.5 | 90 | 114 | 100 | 112
34 | CN1C2CCC1CC(NC(=O)c1nn(C)c3ccccc13)C2 (stereo not given) [LY-278,584 maleate] | -3.3 | -4.1 | 4.2 | -5.7 | 18.7 | 101 | 121 | 85.8 | 107 | 96.6
35 | CCCCNC(=O)NS(=O)(=O)c1ccc(C)cc1 [Tolbutamide] | -5.9 | -3.3 | 4.5 | -0.4 | -3.3 | 124 | 118 | 106 | 101 | 104
36 | Cn1cnc2c(NC3CCCC3)ncnc21 [N6-Cyclopentyl-9-methyladenine] | -9 | 3.2 | 20.2 | 2.9 | 25.2 | 126 | 108 | 108 | 108 | 111
37 | N#CC(=C(/N)Sc1ccccc1N)/C(C#N)=C(/N)Sc1ccccc1N | -11.5 | -18.9 | -18.5 | -8.8 | -23.9 | 96.9 | 109 | 105 | 97.6 | 65.5
38 | Nc1nc2c(ncn2COC(CO)CO)c(=O)[nH]1 [Ganciclovir] | 6.3 | -6 | 14.8 | -3.1 | 6.4 | 119 | 121 | 94.6 | 104 | 102
39 | O=C(O)c1cc(O)c2ccc(Cl)cc2n1 [7-Chlorokynurenic acid] | 11.3 | -11.1 | 4.9 | -2.2 | 12.8 | 92.6 | 86.1 | 84.5 | 122 | 103
40 | COCC(=O)O[C@]1(CCN(C)CCCc2nc3ccccc3[nH]2)CCc2cc(F)ccc2[C@@H]1C(C)C [Mibefradil dihydrochloride] | 10.9 | 8.6 | -2.3 | 20 | 26.2 | 114 | 91.3 | 72.7 | 82.2 | 46.3
41 | O=C(O)c1cc([N+](=O)[O-])ccc1NCCCc1ccccc1 [5-Nitro-2-(3-phenylpropylamino)benzoic acid] | -23.2 | -14.9 | 1.4 | -2.9 | 11.2 | 94.1 | 93.3 | 110 | 95.3 | 132

Full records from above. Values in the order: loss of total cells (Human fetal astrocytes [1]; 1.39 µM) [%]	loss of total cells (Human fetal astrocytes [1]; 2.78 µM) [%]	loss of total cells (Human fetal astrocytes [1]; 5.56 µM) [%]	loss of total cells (Human fetal astrocytes [1]; 11.11 µM) [%]	loss of total cells (Human fetal astrocytes [1]; 22.22 µM) [%]	synaptosome phagocytosis (Human fetal astrocytes [2]; 1.39 µM) [%]	synaptosome phagocytosis (Human fetal astrocytes [2]; 2.78 µM) [%]	synaptosome phagocytosis (Human fetal astrocytes [2]; 5.56 µM) [%]	synaptosome phagocytosis (Human fetal astrocytes [2]; 11.11 µM) [%]	synaptosome phagocytosis (Human fetal astrocytes [2]; 22.22 µM) [%]
CCCn1cnc2c1c(=O)n(CCCCC(C)=O)c(=O)n2C [Propentofylline] is entered as -7.1	-34.4	-7.3	-8.8	-21.4	101	111	125	116	109
C=CCN1CCc2c(cc(O)c(O)c2Br)[C@@H](c2ccccc2)C1 [R(+)-6-Bromo-APB hydrobromide] is entered as -17.6	-17.7	-13.4	-23.8	3.4	82.4	88.7	107	92.3	80.8
